# In the supplement of paper PMC10398353:
# Where a name gives a salt, the structure may show the parent alone. ± gives the standard deviation of the averaged measurements. The list shows a part of the results. This is a noisy data set.
# Tested on: Salmonella enterica serovar Typhimurium ST313 D23580
# Assay: normalized bacterial growth (OD600 20 h minus 0 h, interquartile-mean normalized) (fraction of plate interquartile mean); higher = more bacterial growth (less inhibition)
# Conditions: LPM (pH 5.8, low phosphate, low Mg2+), concentration: 10 µM, temperature: 37 °C
row,SMILES,normalized bacterial growth
1,N=C(N)NC(=N)Nc1ccccc1,1.06
2,COc1cccc2c1[C@@H]1CN(CCCCn3c(=O)[nH]c4c(sc5ncc(-c6ccccc6)nc54)c3=O)C[C@@H]1CO2 [Fiduxosin hydrochloride],1.44
3,CN[C@@H]1[C@H](O[C@H]2[C@H](O[C@H]3[C@H](O)[C@@H](O)[C@H](N=C(N)N)[C@@H](O)[C@@H]3N=C(N)N)O[C@@H](C)[C@]2(O)C=O)O[C@@H](CO)[C@H](O)[C@H]1O,0.941
4,CN[C@@H]1[C@H](O[C@H]2[C@H](O[C@H]3[C@H](O)[C@@H](O)[C@H](N=C(N)N)[C@@H](O)[C@@H]3N=C(N)N)O[C@@H](C)[C@]2(O)C=O)O[C@@H](CO)[C@H](O)[C@H]1O [Streptomycin sulfate],1.02
5,C[C@H](N)CO,1.28
6,COc1cc(-c2oc3cc(O)ccc3c(=O)c2O)ccc1O,0.425
7,OCCOCCN1CCN(C2=Nc3ccccc3Sc3ccccc32)CC1,1.15
8,Cc1cc(O)c(C)c(O)c1C(=O)O,0.8
9,COc1cccc2c1C(=O)c1c(O)c3c(c(O)c1C2=O)C[C@@](O)(C(=O)CO)C[C@@H]3O[C@H]1C[C@H](N)[C@H](O)[C@H](C)O1,0.853 ± 0.079
10,COc1cccc2c1C(=O)c1c(O)c3c(c(O)c1C2=O)C[C@@](O)(C(=O)CO)C[C@@H]3O[C@H]1C[C@H](N)[C@H](O)[C@H](C)O1 [Doxorubicin hydrochloride],0.965
11,Cn1cnc2c(NCc3ccccc3)nc(NCCO)nc21 [Olomoucine],1.18
12,CC1(C)S[C@@H]2[C@H](NC(=O)[C@H](N)c3ccc(O)cc3)C(=O)N2[C@H]1C(=O)O [Amoxicillin],1.12
13,CC1(C)S[C@@H]2[C@H](NC(=O)[C@H](N)c3ccc(O)cc3)C(=O)N2[C@H]1C(=O)O,1.08
14,CC(=O)Nc1cc2ccccc2oc1=O [3-Acetamidocoumarin],1.09
15,COc1ccc(/C=C/C(=O)O)cc1OC,1.34
16,CCCCC(=O)O[C@H]1CC[C@H]2[C@@H]3CCc4cc(O)ccc4[C@H]3CC[C@]12C,1.14
17,O=C(OC[C@H]1O[C@@H](OC(=O)c2cc(O)c(O)c(OC(=O)c3cc(O)c(O)c(O)c3)c2)[C@H](OC(=O)c2cc(O)c(O)c(OC(=O)c3cc(O)c(O)c(O)c3)c2)[C@@H](OC(=O)c2cc(O)c(O)c(OC(=O)c3cc(O)c(O)c(O)c3)c2)[C@@H]1OC(=O)c1cc(O)c(O)c(OC(=O)c2cc(O)c(O)c(O)c2)c1)c1cc(O)c(O)c(OC(=O)c2cc(O)c(O)c(O)c2)c1,0.709
18,COc1ccc2oc(-c3ccccc3OC)cc(=O)c2c1,0.754
19,Fc1ccc(C(c2ccc(F)cc2)N2CCN(C/C=C/c3ccccc3)CC2)cc1 [Flunarizine dihydrochloride],0.989
20,CN1CCc2c(c3ccccc3n2Cc2ccccc2)C1,1.22
21,Cc1oncc1C(=O)Nc1ccc(C(F)(F)F)cc1 [Leflunomide],1.12
22,COc1ccc(C(Cl)=C(c2ccc(OC)cc2)c2ccc(OC)cc2)cc1,1.06
23,O=C(O)c1cccnc1Nc1cccc(C(F)(F)F)c1 [Niflumic acid],0.858
24,"Cc1cn(C2C=CC(CO)O2)c(=O)[nH]c1=O (configuration not stated) [""2',3'-didehydro-3'-deoxythymidine""]",0.938
25,O=C(O)c1cccc(O)c1O,1.01
26,CC(CCc1ccccc1)NCC(O)c1ccc(O)c(C(N)=O)c1 (configuration not stated) [Labetalol hydrochloride],1.02

row,SMILES,normalized bacterial growth
1,CCOC(=O)[C@H](CCc1ccccc1)N[C@@H](C)C(=O)N1Cc2ccccc2C[C@H]1C(=O)O,0.735
2,Cc1cc(O)c(C=O)c2c1C(=O)Oc1c(C)c(O)c3c(c1O2)C(O)OC3=O (configuration not stated),0.399
3,CN1C(C)(C)CCCC1(C)C [Pempidine tartrate],0.923
4,Cc1onc(-c2c(Cl)cccc2Cl)c1C(=O)N[C@@H]1C(=O)N2[C@@H]1SC(C)(C)[C@@H]2C(=O)O,0.893
5,Cc1onc(-c2c(Cl)cccc2Cl)c1C(=O)N[C@@H]1C(=O)N2[C@@H]1SC(C)(C)[C@@H]2C(=O)O [Dicloxacillin sodium salt],0.923
6,COc1cc(OC)c(C(C)=O)c(O)c1C,1.08
7,CN(C)/N=N/c1[nH]cnc1C(N)=O [Dacarbazine],0.87
8,CN(C)/N=N/c1[nH]cnc1C(N)=O,1.06
9,CCCCCC[C@@H]([C@@H](C)O)n1cnc2c(N)ncnc21 [erythro-9-(2-Hydroxy-3-nonyl)adenine hydrochloride],0.865
10,C[N+](C)(C)CCCCCC[N+](C)(C)C [Hexamethonium bromide],1.11
11,C[N+](C)(C)CCCCCC[N+](C)(C)C [Hexamethonium dibromide dihydrate],1.08
12,C[N+](C)(C)CCCCCC[N+](C)(C)C [Hexamethonium dichloride],1.37
13,CC1C(=O)OC2C(O)C34C5CC(C(C)(C)C)C36C(OC(=O)C6O)OC4(C(=O)O5)C12O (configuration not stated),1.06
14,CCCCCCCCc1ccc(-c2ccc(C(=O)O)cc2)cc1,1.03
15,CC[N+](C)(C)Cc1ccccc1Br [Bretylium tosylate],1.19 ± 0.063
16,CN1CCc2cc(O)c(O)cc2C(c2ccccc2)C1 (configuration not stated),0.00791
17,CC1(C)CC[C@]2(C)CC[C@]3(C)C(=CC[C@@H]4[C@@]5(C)CC[C@H](O)C(C)(C)[C@@H]5CC[C@]43C)[C@@H]2C1 [beta-AMYRIN],1.17
18,O=c1cc(-c2ccc(O)cc2)oc2cc(O)c([C@@H]3O[C@H](CO)[C@@H](O)[C@H](O)[C@H]3O)c(O)c12,0.861
19,Cc1cc2c(cc1S(N)(=O)=O)S(=O)(=O)CCC2 [Meticrane],1.13
20,COC(=O)Nc1nc2cc(C(=O)c3ccccc3)ccc2[nH]1,1.02
21,CC1(C)S[C@@H]2[C@H](NC(=O)[C@H](NC(=O)N3CCNC3=O)c3ccccc3)C(=O)N2[C@H]1C(=O)O,1.26
22,CC1(C)S[C@@H]2[C@H](NC(=O)[C@H](NC(=O)N3CCNC3=O)c3ccccc3)C(=O)N2[C@H]1C(=O)O [Azlocillin sodium salt],1.14
23,COc1c(-c2coc3cc4c(cc3c2=O)CC(OC(C)=O)C(C)(C)O4)ccc2c1C=CC(C)(C)O2 (configuration not stated),0.786
24,NC(=O)c1cc[n+](CC2=C(C(=O)O)N3C(=O)[C@@H](NC(=O)[C@@H](c4ccccc4)S(=O)(=O)[O-])[C@H]3SC2)cc1,1.11
25,CCCCCCc1ccc(O)cc1O.Nc1c2ccccc2nc2ccccc12,0.997
26,C[C@@H]1O[C@@H](OC[C@H]2O[C@@H](Oc3cc(O)c4c(c3)O[C@H](c3ccc(O)cc3)CC4=O)[C@H](O)[C@@H](O)[C@@H]2O)[C@H](O)[C@H](O)[C@H]1O,0.824

row,SMILES,normalized bacterial growth
1,COc1cc(O)c2c(c1)oc(=O)c1c3cc(O)c(O)cc3oc21,0.96
2,COC(=O)[C@H]1[C@H]2C[C@H]3c4[nH]c5ccccc5c4CCN3C[C@@H]2CC[C@@H]1O [Corynanthine hydrochloride],1.18
3,COC(=O)[C@H]1[C@H]2C[C@H]3c4[nH]c5ccccc5c4CCN3C[C@@H]2CC[C@@H]1O,0.986 ± 0.016
4,CC(=O)Nc1ccccc1,1.29
5,CSc1ccc2c(c1)C(N1CCN(C)CC1)Cc1ccccc1S2 (configuration not stated) [Methiothepin maleate],1.15
6,CSc1ccc2c(c1)C(N1CCN(C)CC1)Cc1ccccc1S2 (configuration not stated) [Methiothepin mesylate],0.979
7,COc1ccc2c(=O)c(-c3cc4c(cc3OC)OCO4)coc2c1,1.2
8,Cc1ccc(O)c(N=Nc2ccccc2)n1,0.909
9,COc1ccc2c(c1)OC/C(=C\c1ccc(OC)c(O)c1)C2=O,0.972
10,C[C@]1(OC(=O)/C=C/c2ccccc2)C[C@@H](O)[C@]2(O)C=CO[C@@H](O[C@@H]3O[C@H](CO)[C@@H](O)[C@H](O)[C@H]3O)[C@@H]21,1.11
11,C[C@]1(OC(=O)/C=C/c2ccccc2)C[C@@H](O)[C@]2(O)C=CO[C@@H](O[C@@H]3O[C@H](CO)[C@@H](O)[C@H](O)[C@H]3O)[C@@H]21 [Harpagoside],1.14
12,C[N+]1(C)[C@@H]2CC[C@H]1C[C@@H](OC(=O)C(O)c1ccccc1)C2 (some centres not stated),1.01
13,COc1ccc2c(c1)OC1(O)COc3cc(OC)c(OC)cc3C1=C2 (configuration not stated),0.988
14,COc1c2ccoc2c(OC)c2oc(=O)ccc12,1.1
15,COc1ccc([C@@H]2CC(=O)c3c(O)cc(O[C@@H]4O[C@H](CO[C@@H]5O[C@@H](C)[C@H](O)[C@@H](O)[C@H]5O)[C@@H](O)[C@H](O)[C@H]4O)cc3O2)cc1O,1.13
16,CC(C)(C(=O)O)c1ccc(C(O)CCCN2CCC(C(O)(c3ccccc3)c3ccccc3)CC2)cc1 (configuration not stated) [Fexofenadine hydrochloride],0.552
17,CC(C)(C(=O)O)c1ccc(C(O)CCCN2CCC(C(O)(c3ccccc3)c3ccccc3)CC2)cc1 (configuration not stated),1.35
18,CC(N)=NCCCC[C@H](N)C(=O)O [L-N6-(1-Iminoethyl)lysine hydrochloride],1.08
19,CN(C)CCCN1c2ccccc2Sc2ccccc21 [Promazine hydrochloride],0.869
20,Cc1cc(C(C)(C)C)c(O)c(C)c1CC1=NCCN1 [Oxymetazoline hydrochloride],0.793
21,O=C[C@H](O)[C@@H](O)[C@H](O)CO,0.517
22,C[N+]1(C)C[C@H](O)C[C@H]1C(=O)[O-] [Betonicine],1.38
23,C=CC(C1=CC(=O)C=CC1=O)c1ccccc1 (configuration not stated),1.09
24,COC(=O)[C@H](OC(C)=O)[C@H]1C(C)(C)[C@H](OC(C)=O)[C@@H]2CC3=C4CC(=O)O[C@@H](c5ccoc5)[C@]4(C)CC[C@@H]3[C@@]1(C)C2=O,1.14
25,CC(=O)NCCCS(=O)(=O)O,0.884

# Random excerpt: 5 entries already listed.
row,SMILES,normalized bacterial growth
9,COc1cccc2c1C(=O)c1c(O)c3c(c(O)c1C2=O)C[C@@](O)(C(=O)CO)C[C@@H]3O[C@H]1C[C@H](N)[C@H](O)[C@H](C)O1,0.853 ± 0.079
9,CCCCCC[C@@H]([C@@H](C)O)n1cnc2c(N)ncnc21 [erythro-9-(2-Hydroxy-3-nonyl)adenine hydrochloride],0.865
14,CCCCCCCCc1ccc(-c2ccc(C(=O)O)cc2)cc1,1.03
23,C=CC(C1=CC(=O)C=CC1=O)c1ccccc1 (configuration not stated),1.09
22,CC1(C)S[C@@H]2[C@H](NC(=O)[C@H](NC(=O)N3CCNC3=O)c3ccccc3)C(=O)N2[C@H]1C(=O)O [Azlocillin sodium salt],1.14
